Values from PubChem BioAssay AID1259254 (NCATS, 2017)

- Aim: 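Genome-wide screen for genes that prevent DNA re-replication in cancer cells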 (primary screen)
- System: human HCT116 colorectal cancer cells
- Knock-down reagent: single siRNA against human genes
- Duration: 3 days
- Detection: 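Nuclei stained with Hoechst and imaged; cell-cycle phase assigned by DNA content; G2 share scaled per plate, non-targeting siRNA 0%, GMNN siRNA 100%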
- Reading the numbers: G2 robust z-score and G2 cells, % of GMNN control: higher = more G2 cells, more excess DNA replication
- Hit rule: 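An siRNA counts as active if its G2 robust z-score lies at least 5 MADs above the screen median; here such calls match roughly 38% of GMNN control or more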
The deposit covers about 59,000 reagents; shown is a random part of them. Over the whole deposit, about 1,550 (2.6%) are marked active. 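G2 share is only a proxy for re-replication; each gene was hit by three separate siRNAs, and active genes were retested.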 Further read-outs or replicates are left out here. Not given: the amount of reagent.

EMC4 [SID160740378] scored G2 robust z-score -0.691; G2 cells, % of GMNN control -1.89; inactive. EMC4 [SID160740379] showed G2 robust z-score -0.142; G2 cells, % of GMNN control 1.97; inactive. EMC4 [SID160740380] gave G2 robust z-score 3.7; G2 cells, % of GMNN control 29; inactive. With knock-down of ANKRD34B [SID160764368] the results were G2 robust z-score 3.48; G2 cells, % of GMNN control 27.4; inactive. ANKRD34B [SID160764369] showed G2 robust z-score -0.702; G2 cells, % of GMNN control -1.97; inactive. Silencing of ANKRD34B [SID160764370] gave: G2 robust z-score 3.63; G2 cells, % of GMNN control 28.5; inactive.

Silencing of NAPEPLD [SID160761837] came out at: G2 robust z-score -0.317; G2 cells, % of GMNN control 0.735; inactive. NAPEPLD [SID160761838] showed G2 robust z-score 0.506; G2 cells, % of GMNN control 6.53; inactive. NAPEPLD [SID160761839] gave G2 robust z-score -0.11; G2 cells, % of GMNN control 2.19; inactive. With knock-down of NGRN [SID160740633], the record shows G2 robust z-score -1.58; G2 cells, % of GMNN control -8.16; inactive. NGRN [SID160740634] showed G2 robust z-score 1.88; G2 cells, % of GMNN control 16.2; inactive. With knock-down of NGRN [SID160740635], the record shows G2 robust z-score -0.26; G2 cells, % of GMNN control 1.14; inactive.

Quoted from the entries so far, 2 entries:
NGRN [SID160740634]: G2 robust z-score = 1.88; G2 cells, % of GMNN control = 16.2; Call = inactive
NGRN [SID160740635]: G2 robust z-score = -0.26; G2 cells, % of GMNN control = 1.14; Call = inactive
